Test results taken from patent US20050004011A1, “Compositions and methods for treating bacterial infections with protein-dalbavancin complexes” (priority 2002, published 2005).

Tested on: N,N′-diacetyl-Lys-D-Ala-D-Ala
Assay: ITC of binding to tri-peptide, with and without HSA
Conditions: T 25 ° C., [HSA] 513 μM

## CN[C@H](CC(C)C)C(=O)N[C@H]1C(=O)N[C@@H](CC(N)=O)C(=O)N[C@H]2C(=O)N[C@H]3C(=O)N[C@H](C(=O)N[C@H](C(=O)O)c4cc(O)cc(O)c4-c4cc3ccc4O)[C@H](O)c3ccc(c(Cl)c3)Oc3cc2cc(c3O[C@@H]2O[C@H](CO)[C@@H](O)[C@H](O)[C@H]2O[C@H]2C[C@](C)(N)[C@H](O)[C@H](C)O2)Oc2ccc(cc2Cl)[C@H]1O [Vancomycin, vancomycin hydrochloride, reference compound]
  ΔS: −8.80 eu

Structures can show the parent of a compound that is named as a salt.
